A word on the LD50: it is the dose expected to kill half of the subjects tested. The ED50 is the dose at which the effect has come halfway, by size or by number of responders. Read a high ED50 as a need for a large dose.

For one compound, LD50 and ED50 results are on record in EP0005219A1, “Arylimidazoles, their synthesis and pharmaceutical or veterinary preparations containing them” (A/S Dumex (Dumex Ltd.), priority 1978, dated 1979).

Molecules are shown by their SMILES.

The nature of one data set: in vivo. The following applies: mouse, po, mice, by gavage, observation period 168 hours, read-out: Acute toxicity LD50.
The test system of a further data set is mice. As to the kind of experiment: Writhing test in mice (acetic acid induced writhing), analgesic activity. The class given is in vivo. The following applies: Mus musculus, po, 20 min, by gavage ½ hour prior to intraperitoneal acetic acid, writhing movements in 20 minutes. How it is done:
Writhing test in mice. (SPF females of the strain NMRI/BOM, weighing 20-25 g). The test substance was administered by gavage ½ hour prior to an intraperitoneal injection of acetic acid. The number of writhing movements in 20 minutes was counted.

Consider `COc1ccc2cc([C@H](C)C(=O)O)ccc2c1` [Compound 14, Naproxen, reference compound], for which the median lethal dose (LD50) at 168 h in the data set “in vivo” stood at 1340 mg/kg. In addition, the ED50 in the data set with mice came to 33 mg/kg.
